Source: patent publication US7838676B2, “Beta-secretase modulators and methods of use” (Amgen Inc., priority 2005, dated 2010)
pIC50: −log10 of the molar value. Some of these results come from one statement about several compounds together. At least one compound was matched to its structure with a doubt left.

Protein sequences, listed by entry. Tags and fused reporters are not part of them. Residues count along the entry.
UniProt P56817, 46-501, species assumed: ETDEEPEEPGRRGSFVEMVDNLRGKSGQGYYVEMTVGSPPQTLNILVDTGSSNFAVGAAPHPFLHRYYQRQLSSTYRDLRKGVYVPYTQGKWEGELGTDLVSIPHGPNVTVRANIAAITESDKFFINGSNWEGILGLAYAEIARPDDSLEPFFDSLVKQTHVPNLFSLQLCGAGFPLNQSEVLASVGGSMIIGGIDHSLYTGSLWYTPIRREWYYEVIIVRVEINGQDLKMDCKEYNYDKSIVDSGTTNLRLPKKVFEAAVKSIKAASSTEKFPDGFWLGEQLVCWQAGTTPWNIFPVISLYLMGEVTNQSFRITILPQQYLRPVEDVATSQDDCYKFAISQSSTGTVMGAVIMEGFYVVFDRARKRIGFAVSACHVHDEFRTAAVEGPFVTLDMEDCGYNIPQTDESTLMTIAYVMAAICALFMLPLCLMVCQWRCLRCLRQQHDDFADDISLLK

Target: BACE (Homo sapiens, UniProt P56817)
Assay: In Vitro Enzymatic BACE FRET (Fluorescence Resonance Energy Transfer) Assay
Format: biochemical
Details: enzyme 0.2 nM, FRET substrate 50 nM, pH 4.2

Structure (SMILES)	pIC50
CCc1ccc2c(c1)[C@@H](NC[C@@H](O)[C@H](Cc1ccccc1)NS(=O)(=O)c1ccccc1)CC1(CCC1)O2 [Example 61, N-((1S,2R)-3-(((4S)-6-ethyl-3,4-dihydrospiro[chromene-2,1′-cyclobutan]-4-yl)amino)-2-hydroxy-1-(phenylmethyl)propyl) benzenesulfonamide]	≥ 5.30
CC(=O)c1ccc2c(c1)[C@@H](NC[C@@H](O)[C@H](Cc1ccccc1)NC(=O)c1ccc(F)c(N3CCCC3=O)c1)CC1(CCC1)O2 [Example 67, N-((1S,2R)-3-(((4S)-6-acetyl-3,4-dihydrospiro[chromene-2,1′-cyclobutan]-4-yl)amino)-2-hydroxy-1-(phenylmethyl)propyl)-4-fluoro-3-(2-oxo-1-pyrrolidinyl)benzamide]	≥ 5.30
CCc1ccc2c(c1)[C@@H](NC[C@@H](O)[C@H](Cc1ccccc1)NC(=O)c1cc(Cl)cc3c(C=O)c[nH]c13)CC1(CCCC1)O2 [Example 170, 5-chloro-N-((2S,3R)-4-((S)-6-ethyl-2,2-spirocyclopentylchroman-4-ylamino)-3-hydroxy-1-phenylbutan-2-yl)-3-formyl-1H-indole-7-carboxamide]	≥ 5.30
CCc1ccc2c(c1)C(NC[C@@H](O)[C@H](Cc1ccccc1)NC(=O)c1ccoc1)CC1(CCC1)O2 (stereo partly drawn) [Example 60, N-((1S,2R)-3-((6-ethyl-3,4-dihydrospiro[chromene-2,1′-cyclobutan]-4-yl)amino)-2-hydroxy-1-(phenylmethyl)propyl)-3-furancarboxamide]	≥ 5.30
CC1CCCN(c2cc(C(=O)NC(Cc3ccccc3)C(O)CNC3CC4(CCCC4)Oc4ccc(CC(C)(C)C)cc43)ccn2)C1 [Example 117, N-((2S,3R)-4-((S)-6-neopentyl-3,4-dihydrospiro[chromene-2,1′-cyclopentan]-4-yl)amino)-3-hydroxy-1-phenylbutan-2-yl)-2-(3-methylpiperidin-1-yl)isonicotinamide]	≥ 5.30
CCc1ccc2c(c1)[C@@H](NC[C@@H](O)[C@H](Cc1ccccc1)NC(=O)c1ccc(F)c(N3CCCC3=O)c1)C[C@]1(CCOC1)O2 [Example 37, N-((1S,2R)-3-(((2R,4S)-6-ethyl-3,4,4′,5′-tetrahydrospiro[chromene-2,3′-furan]-4-yl)amino)-2-hydroxy-1-(phenylmethyl)propyl)-4-fluoro-3-(2-oxo-1-pyrrolidinyl)benzamide]	≥ 5.30
CCc1ccc2c(c1)[C@@H](NC[C@@H](O)[C@H](Cc1ccccc1)NC(=O)c1ccc(F)c(N3CCCC3=O)c1)CC1(CCC1)O2 [Example 115, N-((1S,2R)-3-(((4S)-6-ethyl-3,4-dihydrospiro[chromene-2,1′-cyclobutan]-4-yl)amino)-2-hydroxy-1-(phenylmethyl)propyl)-4-fluoro-3-(2-oxo-1-pyrrolidinyl)benzamide]	≥ 5.30
O=C(N[C@@H](Cc1ccccc1)[C@H](O)CN[C@H]1CC2(CCC2)Oc2cnccc21)c1ccc(F)c(N2CCCC2=O)c1 [Example 94, N-((2S,3R)-4-((S)-2,2-spirocyclobutyl-3,4-dihydro-2H-pyrano[2,3-c]pyridin-4-ylamino)-3-hydroxy-1-phenylbutan-2-yl)-4-fluoro-3-(2-oxopyrrolidin-1-yl)benzamide]	≥ 5.30
CCc1ccc2c(c1)[C@@H](NC[C@@H](O)[C@H](Cc1ccccc1)NC(=O)c1ccccc1)CC1(CCCC1)O2 [Example 28, N-((2S,3R)-4-((S)-6-ethyl-2,2-spirocyclopentylchroman-4-ylamino)-3-hydroxy-1-phenylbutan-2-yl)benzamide]	≥ 5.30
CCc1ccc2c(c1)[C@@H](NC[C@@H](O)[C@H](Cc1ccccc1)NC(=O)c1cc3cc(OC)ccc3[nH]1)CC1(CCCC1)O2 [Example 133, N-((2S,3R)-4-((S)-6-ethyl-2,2-spirocyclopentylchroman-4-ylamino)-3-hydroxy-1-phenylbutan-2-yl)-5-methoxy-1H-indole-2-carboxamide]	≥ 5.30
